From the supplement of paper PMC4604168 (melanoma cell lines)
This is one part of the list. Many values rest on one well or one pass, so single values are uncertain.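 Imaging used 1,536-well plates; nuclei positive for cleaved PARP by antibody were divided by total DNA-stained nuclei to yield the apoptosis fraction. Doses for screening kept most cells viable, and cell lines differ markedly in resting and induced cleaved-PARP levels.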

Legend:
Test in all cases: cleaved PARP positive nuclei fraction relative to DMSO control; melanoma cells; higher = more apoptosis
Settings in all cases: library dose: low library concentration; 72 h
MZ2-MEL = tested on: MZ2-MEL
MeWo = tested on: MeWo
RPMI7951 = tested on: RPMI7951
RVH-421 = tested on: RVH-421
SkMel28 = tested on: SkMel28
SkMel2 = tested on: SkMel2
SkMel30 = tested on: SkMel30
SkMel5 = tested on: SkMel5
UACC257 = tested on: UACC257
UACC62 = tested on: UACC62
WM115 = tested on: WM115
WM1716 = tested on: WM1716
WM1745 = tested on: WM1745
WM3526 = tested on: WM3526
WM3619 = tested on: WM3619
WM451Lu = tested on: WM451Lu

SMILES	cleaved PARP positive nuclei fraction (MZ2-MEL)	cleaved PARP positive nuclei fraction (MeWo)	cleaved PARP positive nuclei fraction (RPMI7951)	cleaved PARP positive nuclei fraction (RVH-421)	cleaved PARP positive nuclei fraction (SkMel28)	cleaved PARP positive nuclei fraction (SkMel2)	cleaved PARP positive nuclei fraction (SkMel30)	cleaved PARP positive nuclei fraction (SkMel5)	cleaved PARP positive nuclei fraction (UACC257)	cleaved PARP positive nuclei fraction (UACC62)	cleaved PARP positive nuclei fraction (WM115)	cleaved PARP positive nuclei fraction (WM1716)	cleaved PARP positive nuclei fraction (WM1745)	cleaved PARP positive nuclei fraction (WM3526)	cleaved PARP positive nuclei fraction (WM3619)	cleaved PARP positive nuclei fraction (WM451Lu)
NC1(c2ccc(-c3nc4ccn5c(=O)[nH]nc5c4cc3-c3ccccc3)cc2)CCC1 + COc1ccc2c(c1)CCC1C2CCC2(C)C(NCCCCCCN3C(=O)C=CC3=O)CCC12 [U73122] (first compound 0.4 µM, partner dose 0.4 µM)	147%	19.4%	45.5%	124%	151%	63.4%	242%	80.4%	34%	178%	113%	180%	101%	141%	97.9%	73.2%
CCCCCCCCc1ccc(CCC(N)(CO)CO)cc1 [fingolimod] + N#Cc1c(O)c2c(-c3ccc(-c4ccccc4O)cc3)csc2[nH]c1=O [A769662] (first compound 2 µM, partner dose 2 µM)	263%	29.5%	146%	225%	59.9%	171%	577%	140%	118%	137%	236%	78.9%	135%	86.4%	143%	72.3%
C[C@@H](N)c1ccc(C(=O)Nc2ccnc3[nH]ccc23)cc1 + O=C(CCCCCCC(=O)Nc1ccccc1)NO [vorinostat] (first compound 0.4 µM, partner dose 0.08 µM)	289%	150%	83.1%	121%	155%	146%	156%	150%	629%	371%	41.2%	343%	92.4%	35.5%	103%	272%
CC1(C)CCC(c2ccc(Cl)cc2)=C(CN2CCN(c3ccc(C(=O)NS(=O)(=O)c4ccc(N[C@H](CCN5CCOCC5)CSc5ccccc5)c(S(=O)(=O)C(F)(F)F)c4)cc3)CC2)C1 + COc1cc2c(Oc3ccc4[nH]c(C)cc4c3F)ncnc2cc1OCCCN1CCCC1 [cediranib] (first compound 0.4 µM, partner dose 0.4 µM)	189%	52.1%	199%	56%	54%	91.1%	90%	91.3%	219%	61%	220%	240%	1020%	59.2%	100%	66%
CCN(CC)CCNC(=O)c1c(C)[nH]c(/C=C2\C(=O)Nc3ccc(F)cc32)c1C [sunitinib] + Cc1cc([N+](=O)[O-])ccc1NS(=O)(=O)c1cc(Cl)ccc1Cl [FH535] (first compound 0.4 µM, partner dose 1 µM)	128%	157%	208%	99.1%	234%	81.1%	332%	217%	59.5%	163%	136%	66.1%	99.3%	91.8%	89.3%	25%
COc1ccc(C2=N[C@@H](c3ccc(Cl)cc3)[C@@H](c3ccc(Cl)cc3)N2C(=O)N2CCNC(=O)C2)c(OC(C)C)c1 [Nutlin-3] + Oc1cc(-c2nc(-c3ccccc3)[nH]c2-c2ccncc2)ccc1Cl [L779450] (first compound 0.1 µM, partner dose 0.2 µM)	140%	339%	148%	27%	158%	99.2%	48.7%	69.2%	162%	134%	99.3%	96.6%	125%	114%	101%	47.9%
NC1(c2ccc(-c3nc4ccn5c(=O)[nH]nc5c4cc3-c3ccccc3)cc2)CCC1 + COc1ccc(-c2ccc3c(N4CCOCC4)nc(N4C[C@@H](C)O[C@@H](C)C4)nc3n2)cc1CO [KU0063794] (first compound 0.4 µM, partner dose 0.02 µM)	95.5%	62.7%	80.9%	204%	177%	94.5%	32.5%	72.1%	321%	191%	268%	109%	103%	111%	124%	134%
NC1(c2ccc(-c3nc4ccn5c(=O)[nH]nc5c4cc3-c3ccccc3)cc2)CCC1 + CCc1ccc(CCOc2ccc(CC3SC(=O)NC3=O)cc2)nc1 [pioglitazone] (first compound 0.4 µM, partner dose 2 µM)	148%	66.7%	103%	142%	395%	30.3%	38.1%	265%	55%	233%	103%	36.6%	90.5%	129%	90.2%	73.6%
COc1ccc(C2=N[C@@H](c3ccc(Cl)cc3)[C@@H](c3ccc(Cl)cc3)N2C(=O)N2CCNC(=O)C2)c(OC(C)C)c1 [Nutlin-3] + Cc1cc(N2CCOCC2)cc2[nH]c(-c3c(NC[C@@H](O)c4cccc(Cl)c4)cc[nH]c3=O)nc12 [BMS536924] (first compound 0.1 µM, partner dose 0.2 µM)	180%	425%	40.7%	124%	112%	270%	178%	147%	106%	95.9%	211%	54.3%	123%	62.9%	105%	114%
C[C@@H](N)c1ccc(C(=O)Nc2ccnc3[nH]ccc23)cc1 + CN(C)S(=O)(=O)c1ccc2c(c1)/C(=C/c1cc3c([nH]1)CCCC3)C(=O)N2 [SU6656] (first compound 0.4 µM, partner dose 0.4 µM)	187%	259%	147%	139%	127%	71.2%	89.3%	156%	54.1%	131%	132%	106%	146%	58%	133%	107%
CCN(CC)CCNC(=O)c1c(C)[nH]c(/C=C2\C(=O)Nc3ccc(F)cc32)c1C [sunitinib] + CCc1ccc(CCOc2ccc(CC3SC(=O)NC3=O)cc2)nc1 [pioglitazone] (first compound 0.4 µM, partner dose 2 µM)	50.3%	60.3%	83.3%	89%	134%	57.7%	107%	74.2%	85.5%	132%	104%	72.9%	103%	248%	60.3%	67.5%
Cn1cnc2c(F)c(Nc3ccc(Br)cc3Cl)c(C(=O)NOCCO)cc21 [selumetinib] + O=C(O)C(=O)Nc1sc2c(c1C(=O)O)CCNC2 [TCS401] (first compound 0.015 µM, partner dose 1.66667 µM)	97.2%	79.5%	85.5%	96.8%	138%	206%	37.1%	36.2%	202%	320%	128%	139%	91.1%	145%	98.6%	20.3%
Cn1cnc2c(F)c(Nc3ccc(Br)cc3Cl)c(C(=O)NOCCO)cc21 [selumetinib] + O=C1NC(=O)/C(=C/c2ccc(-c3ccc(F)cc3O)o2)S1 [AS252424] (first compound 0.015 µM, partner dose 1 µM)	228%	175%	55%	186%	134%	141%	36.2%	62.8%	195%	193%	138%	51.9%	91.3%	139%	136%	96.3%
C[C@]1(O)C[C@@H](c2nc(-c3ccc4ccc(-c5ccccc5)nc4c3)c3c(N)nccn32)C1 + COc1cc(Nc2ncc(F)c(Nc3ccc4c(n3)NC(=O)C(C)(C)O4)n2)cc(OC)c1OC [Tamatinib] (first compound 0.4 µM, partner dose 0.4 µM)	198%	62.4%	54.6%	33.2%	161%	179%	185%	48.2%	472%	124%	86%	123%	185%	96.2%	88.9%	121%
CCN(CC)CCNC(=O)c1c(C)[nH]c(/C=C2\C(=O)Nc3ccc(F)cc32)c1C [sunitinib] + CN(C)S(=O)(=O)c1ccc2c(c1)/C(=C/c1cc3c([nH]1)CCCC3)C(=O)N2 [SU6656] (first compound 0.4 µM, partner dose 0.4 µM)	112%	88.9%	127%	256%	86.4%	66.9%	71.4%	94.8%	85.5%	71.9%	145%	39.4%	110%	58.4%	83.8%	65.1%
CCCCCCCCc1ccc(CCC(N)(CO)CO)cc1 [fingolimod] + NC(=O)Nc1cc(-c2cccc(F)c2)sc1C(=O)N[C@H]1CCCNC1 [AZD7762] (first compound 2 µM, partner dose 0.02 µM)	159%	89.9%	187%	174%	139%	108%	82.2%	135%	27.3%	141%	59.1%	314%	138%	77.9%	246%	40.7%
Cn1cnc2c(F)c(Nc3ccc(Br)cc3Cl)c(C(=O)NOCCO)cc21 [selumetinib] + CN(NC(=O)CC(=O)NN(C)C(=S)c1ccccc1)C(=S)c1ccccc1 [STA4783] (first compound 0.015 µM, partner dose 0.006 µM)	472%	168%	51%	37.6%	87.6%	122%	118%	90.5%	159%	124%	110%	82.3%	250%	144%	179%	59.6%
CCCCCCCCc1ccc(CCC(N)(CO)CO)cc1 [fingolimod] + CCCCCCCCCCCC1=C(O)C(=O)C=C(O)C1=O [Embelin] (first compound 2 µM, partner dose 1.2 µM)	75.8%	28.3%	40.1%	150%	138%	34%	18.3%	82%	72.7%	95.7%	26.2%	112%	108%	133%	207%	84.8%
CCN(CC)CCNC(=O)c1c(C)[nH]c(/C=C2\C(=O)Nc3ccc(F)cc32)c1C [sunitinib] + COc1cc(Nc2ncc(F)c(Nc3ccc4c(n3)NC(=O)C(C)(C)O4)n2)cc(OC)c1OC [Tamatinib] (first compound 0.4 µM, partner dose 0.4 µM)	71.5%	43.8%	69%	118%	94.9%	125%	81.4%	31.1%	48.9%	122%	97.2%	104%	138%	135%	98.4%	48.5%

Reformatted: results already given.
SMILES | cleaved PARP positive nuclei fraction (MZ2-MEL) | cleaved PARP positive nuclei fraction (MeWo) | cleaved PARP positive nuclei fraction (RPMI7951) | cleaved PARP positive nuclei fraction (RVH-421) | cleaved PARP positive nuclei fraction (SkMel28) | cleaved PARP positive nuclei fraction (SkMel2) | cleaved PARP positive nuclei fraction (SkMel30) | cleaved PARP positive nuclei fraction (SkMel5) | cleaved PARP positive nuclei fraction (UACC257) | cleaved PARP positive nuclei fraction (UACC62) | cleaved PARP positive nuclei fraction (WM115) | cleaved PARP positive nuclei fraction (WM1716) | cleaved PARP positive nuclei fraction (WM1745) | cleaved PARP positive nuclei fraction (WM3526) | cleaved PARP positive nuclei fraction (WM3619) | cleaved PARP positive nuclei fraction (WM451Lu)
CCCCCCCCc1ccc(CCC(N)(CO)CO)cc1 [fingolimod] + NC(=O)Nc1cc(-c2cccc(F)c2)sc1C(=O)N[C@H]1CCCNC1 [AZD7762] (first compound 2 µM, partner dose 0.02 µM) | 159% | 89.9% | 187% | 174% | 139% | 108% | 82.2% | 135% | 27.3% | 141% | 59.1% | 314% | 138% | 77.9% | 246% | 40.7%
Cn1cnc2c(F)c(Nc3ccc(Br)cc3Cl)c(C(=O)NOCCO)cc21 [selumetinib] + CN(NC(=O)CC(=O)NN(C)C(=S)c1ccccc1)C(=S)c1ccccc1 [STA4783] (first compound 0.015 µM, partner dose 0.006 µM) | 472% | 168% | 51% | 37.6% | 87.6% | 122% | 118% | 90.5% | 159% | 124% | 110% | 82.3% | 250% | 144% | 179% | 59.6%
CCCCCCCCc1ccc(CCC(N)(CO)CO)cc1 [fingolimod] + CCCCCCCCCCCC1=C(O)C(=O)C=C(O)C1=O [Embelin] (first compound 2 µM, partner dose 1.2 µM) | 75.8% | 28.3% | 40.1% | 150% | 138% | 34% | 18.3% | 82% | 72.7% | 95.7% | 26.2% | 112% | 108% | 133% | 207% | 84.8%
CCN(CC)CCNC(=O)c1c(C)[nH]c(/C=C2\C(=O)Nc3ccc(F)cc32)c1C [sunitinib] + COc1cc(Nc2ncc(F)c(Nc3ccc4c(n3)NC(=O)C(C)(C)O4)n2)cc(OC)c1OC [Tamatinib] (first compound 0.4 µM, partner dose 0.4 µM) | 71.5% | 43.8% | 69% | 118% | 94.9% | 125% | 81.4% | 31.1% | 48.9% | 122% | 97.2% | 104% | 138% | 135% | 98.4% | 48.5%
